Test results taken from patent US20210205211A1, “PERCUTANEOUS ABSORPTION PREPARATION” (KYUSHU UNIVERSITY, NATIONAL UNIVERSITY CORPORATION, priority 2018, published 2021).
Part of at least one peptide drawing is inferred or uncertain, most often the ends. Residues, ends and D or L forms follow the SMILES beside them.

Assays:
[1] = Measurement of zeta potential by electrophoretic light scattering; assay type: physicochemical; details: 1 mg in 1 mL PBS solution, 25° C., Zetasizer Nano ZS
Method: In each 1 mL of a PBS solution was dissolved 1 mg of a part (7 kinds) of the various kinds of hydrophilic polymers shown in the above-mentioned Table 1, and a zeta potential was measured by an electrophoretic light scattering method at 25° C. using Zetasizer Nano ZS (Malvern Panalytical Ltd.).

[2] = no method given; cited from earlier work

## CC(C)C[C@H](NC(=O)[C@H](CCC(=O)O)NC(=O)[C@H](CCC(=O)O)NC(=O)[C@@H](NC(=O)[C@H](Cc1ccc(O)cc1)NC(=O)[C@@H](NC(=O)[C@H](CCCNC(=N)N)NC(=O)[C@H](CC(C)C)NC(=O)[C@@H]1CCCN1C(=O)[C@H](C)NC(=O)[C@H](CO)NC(=O)[C@H](CCC(N)=O)NC(=O)[C@H](C)NC(=O)[C@H](CC(=O)O)NC(=O)[C@H](CC(C)C)NC(=O)[C@@H](N)CC(C)C)C(C)C)C(C)C)C(=O)N[C@@H](CCCCN)C(=O)N1CCC[C@H]1C(=O)O [Peptide (CMAP, from Beta-lactoglobulin)] (H-LLDAQSAPLRVYVEELKP-OH; N-terminus and C-terminus assumed)
[1]
  ζ potential: −21.2 mV
[2]
  pI: 4.7
